Test results as given in the supplement of paper PMC8616043.
Where a name gives a salt, the structure may show the parent alone. Some of the results follow. Repeats in this data set agree poorly, so a single value says little.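 The cells are human U-2 OS cells that stably carry a GFP sensor with a nuclear import signal and a classical export signal. They were transfected to make PR50, a 50-repeat proline–arginine dipeptide protein from the ALS/FTD gene C9ORF72. Each well's nuclear-minus-cytoplasm GFP signal was scaled from in-plate DMSO (low) to PR-only wells (high), then scored against the other test wells on the plate; compounds scoring well below zero were called hits that reverse the PR effect.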

Test system: U-2 OS NCT-C biosensor cells expressing PR50
Test: Z-score of normalised NCT-C biosensor translocation index in PR50-expressing cells; higher = more nuclear biosensor (more disrupted nuclear export)
Settings: 3 µM; 24 h

SMILES	Z-score
Cc1cccc(C#Cc2ccccc2)n1 [6-Methyl-2- (phenylethynyl) pyridine hydrochloride]	inactive: -0.344
c1ccc(C(NCc2cccnc2)(c2ccccc2)c2ccccc2)cc1	inactive: 1.26
O=C1CC2(CCCC2)CC(=O)N1CCCCN1CCN(c2ncccn2)CC1 [Buspirone hydrochloride]	inactive: 5.31
O=C1CC2(CCCC2)CC(=O)N1CCCCN1CCN(c2ncccn2)CC1 [Buspirone·HCl]	inactive: 0.381
Cc1cc(C)c(/C=C2\C(=O)Nc3ccccc32)[nH]1	inactive: -0.446
Nc1nc(=O)n(C2CC(O)C(CO)O2)cc1F (centres undefined) [2'-Deoxy-5-fluorocytidine]	inactive: -0.71
CNC(C)C1CCC(N)C(OC2C(N)CC(N)C(OC3OCC(C)(O)C(NC)C3O)C2O)O1 (centres undefined) [Gentamycin Sulfate]	inactive: 0.556
CCCc1nc(C)c2c(=O)nc(-c3cc(S(=O)(=O)N4CCN(CC)CC4)ccc3OCC)[nH]n12 [Vardenafil]	inactive: 0.681
CN1CCN(c2nc3cc(C(F)(F)F)ccc3n3cccc23)CC1	inactive: -1.32
COCCOC(=O)C1=C(C)NC(C)=C(C(=O)OC/C=C/c2ccccc2)C1c1cccc([N+](=O)[O-])c1 (centres undefined) [Cilnidipine]	inactive: -1.2
CC(C)=CCC/C(C)=C/CC/C(C)=C/CC/C(C)=C/CC/C(C)=C/CC/C(C)=C/CC/C(C)=C/CC/C(C)=C/CC/C(C)=C/CO [Solanesol]	inactive: -0.18
CO[C@@]12[C@H](COC(N)=O)C3=C(C(=O)C(C)=C(N)C3=O)N1C[C@@H]1N[C@@H]12 [Mitomycin C]	inactive: 0.0605
CC1=Nc2ccc(Cl)cc2S(=O)(=O)N1 [Diazoxide]	inactive: 0.245
Cc1ccc(Cl)c(Nc2ccccc2C(=O)O)c1Cl [Meclofenamic acid sodium salt]	inactive: 0.314
C=C1/C(=C\C=C2/CCC[C@]3(C)[C@@H]([C@H](C)/C=C/[C@@H](O)C4CC4)CC[C@@H]23)C[C@@H](O)C[C@@H]1O [Calcipotriene]	inactive: -0.187
CN(C)CCOc1ccc(/C(=C(/CCCl)c2ccccc2)c2ccccc2)cc1 [Toremifene Base]	inactive: 0.103
C[C@H]1C[C@H]2[C@@H]3CCC4=CC(=O)C=C[C@]4(C)[C@@]3(F)[C@@H](O)C[C@]2(C)[C@@]1(O)C(=O)CO [Betamethasone]	inactive: 1.92
CCCC(CCC)C(=O)NO [Valproic acid hydroxamate]	inactive: 0.017
CCCn1c(=O)c2c(ncn2C)n(CCC)c1=O [1,3-Dipropyl-7- methylxanthine]	inactive: -0.74
Nc1ncnc2c1ncn2[C@@H]1O[C@H](COP(=O)(O)CP(=O)(O)OP(=O)([O-])O)[C@@H](O)[C@H]1O.[Li+] [alpha,beta-Methylene adenosine 5'- triphosphate lithium salt]	inactive: -0.706
COc1cc(NS(C)(=O)=O)ccc1Nc1c2ccccc2nc2ccccc12 [Amsacrine hydrochloride]	inactive: -0.0466
COc1ccc(/C=C/C(=O)c2c(O)cc(OC)cc2OC)cc1 [Flavokawain A]	inactive: -0.393

SMILES	Z-score
CN(C)c1ccc(/C=C2/C(=O)Nc3ccccc32)cc1	inactive: -0.265
COc1ccccc1S(=O)(=O)Nc1ccc2c(c1)CN(C)C(=O)N2	inactive: -1.4
C1CCN2C[C@@H]3C[C@@H](CN4CCCC[C@@H]34)[C@H]2C1 [Spartein sulfate·5H2O]	inactive: 0.467
Nc1nc(=O)c(Br)c(-c2ccccc2)[nH]1 [Bropirimine]	inactive: -0.394
CC1(C)O[C@@H]2C[C@H]3[C@@H]4CCC5=CC(=O)C=C[C@]5(C)[C@@]4(F)[C@@H](O)C[C@]3(C)[C@]2(C(=O)CO)O1 [Triamcinolone Acetonide]	inactive: 0.167
N=C(N)SCCc1c[nH]cn1 [Imetit dihydrobromide]	inactive: 0.782
CC(C)NCC(O)COc1ccc(CC(N)=O)cc1 (racemic) [(±)-Atenolol]	inactive: -0.0804
Cc1cnc(NC(=O)C2=C(O)c3ccccc3S(=O)(=O)N2C)s1 [Meloxicam]	inactive: -1.5
Cc1cnc(NC(=O)C2=C(O)c3ccccc3S(=O)(=O)N2C)s1 [Meloxicam sodium]	inactive: -0.761
O=C(O)CCCc1ccccc1 [Phenylbutyrate·Na]	active: -2.96
O=C(O)CCCc1ccccc1 [Sodium 4-Phenylbutyrate]	inactive: -1.89
O=C(O)CCCc1ccccc1 [Sodium Phenylbutyrate]	inactive: -0.0404
C[C@@H]1C[C@H]2[C@@H]3CCC4=CC(=O)C=C[C@]4(C)[C@@]3(F)[C@@H](O)C[C@]2(C)[C@@]1(O)C(=O)CO [Dexamethasone]	inactive: -0.522
NC(CCCP(=O)(O)O)C(=O)O (racemic) [(±)-2-Amino-5-  phosphono pentanoic acid]	inactive: 0.221
O=C1CCC(c2ccc(-n3ccnc3)cc2)=NN1 [Imazodan]	inactive: 0.167
CCOC(=O)[C@H](CCc1ccccc1)N[C@H]1CCc2ccccc2N(CC(=O)O)C1=O [Benazepril·HCl]	inactive: -0.136
CN1C(=O)C[C@H](C(=O)O)[C@H]1c1cccnc1 [Trans-4-Cotininecarboxylic acid]	inactive: 2.13
CC(C)(C)NC[C@H](O)COc1nsnc1N1CCOCC1 [(S)-Timolol Maleate]	inactive: 1.73
CC(C)(C)NC[C@H](O)COc1nsnc1N1CCOCC1 [S(-)-Timolol maleate]	inactive: -0.365
c1ccc2c(c1)CCC[C@H]2Nc1nc2ccccc2[nH]1 [NS8593  hydrochloride]	inactive: -0.337
COc1cc(C[C@H](C)[C@H](C)Cc2ccc3c(c2)OCO3)ccc1O [Macelignan]	inactive: -0.662
Cc1cc2nc(NCCCO)n(CC(=O)c3cc(C(C)(C)C)c(O)c(C(C)(C)C)c3)c2cc1C	inactive: -0.397

A different layout for some results above:
SMILES,Z-score
CN1C(=O)C[C@H](C(=O)O)[C@H]1c1cccnc1 [Trans-4-Cotininecarboxylic acid],inactive: 2.13
CC(C)(C)NC[C@H](O)COc1nsnc1N1CCOCC1 [(S)-Timolol Maleate],inactive: 1.73
CC(C)(C)NC[C@H](O)COc1nsnc1N1CCOCC1 [S(-)-Timolol maleate],inactive: -0.365
c1ccc2c(c1)CCC[C@H]2Nc1nc2ccccc2[nH]1 [NS8593  hydrochloride],inactive: -0.337
COc1cc(C[C@H](C)[C@H](C)Cc2ccc3c(c2)OCO3)ccc1O [Macelignan],inactive: -0.662

Remaining list, next part:

SMILES	Z-score
NCCCC[C@H](N[C@@H](CCc1ccccc1)C(=O)O)C(=O)N1CCC[C@H]1C(=O)O [Lisinopril·2H2O]	inactive: 0.132
FC(F)(F)c1ccccc1-n1ccnc1 [1-[2-  (Trifluoromethyl)ph enyl]imidazole]	inactive: -0.216
C[C@@]12CCc3occc3[C@H]1CC[C@@]13C[C@@H](CC[C@H]12)[C@@](O)(CO)C3 [Cafestol]	inactive: -0.126
NCCOc1cc(C(=O)Nc2cc(OCCN)c3ccccc3n2)nc(C(=O)Nc2cc(OCCN)c3ccccc3n2)c1 [Pyridostatin trifluoroacetate salt]	inactive: -0.763
CO/N=C(\C(=O)N[C@@H]1C(=O)N2C(C(=O)O)=C(CSc3nc(=O)c(O)nn3C)CS[C@H]12)c1csc(N)n1 [Ceftriaxone sodium salt]	inactive: -0.473
COc1cc(OC)c2c(=O)[nH]c(-c3cc(C)c(OCCO)c(C)c3)nc2c1	active: -2.96
Oc1ccccc1O [Pyrocatechol]	inactive: -0.0856
COc1cccc(NC(=O)/C=C/c2ccc(Cl)cc2)c1	inactive: -0.762
O=C1C[C@@H](c2ccc(O)c(O)c2)Oc2cc(O[C@@H]3O[C@H](CO)[C@@H](O)[C@H](O)[C@H]3O)cc(O)c21 [Eriodictyol-7-O-glucoside]	inactive: -0.302
CN(C)CCC(c1ccc(Cl)cc1)c1ccccn1 (single isomer, unassigned; (+)) [(+)-Chlorpheniramine maleate salt]	inactive: -0.523
Cc1scc2c1N(C(=O)CN1CCN(C)CC1)c1ccccc1NC2=O [Telenzepine dihydrochloride]	inactive: 0.26
c1ccc(C2CN3CCSC3=N2)cc1 (centres undefined) [Tetramisole hydrochloride]	inactive: -0.33
Cn1c(=O)c2nc[nH]c2n(C)c1=O [Theophylline]	inactive: -0.316
CCCCCCCCCCCCCCCC(=O)OC[C@H](COP(=O)(O)OCCNC(=O)[C@H](C)NC(=O)CC[C@@H](NC(=O)[C@H](C)NC(=O)[C@@H](C)O[C@H]1[C@H](O)[C@@H](CO)OC(O)[C@@H]1NC(C)=O)C(N)=O)OC(=O)CCCCCCCCCCCCCCC (some centres undefined) [Mifamurtide]	inactive: 1.08
Cc1cc(=O)oc2cc(O)ccc12 [4-Methylumbelliferone]	inactive: 0.573
CNC(=O)c1cc2c(cn1)[nH]c1ccccc12 [N-Methyl-beta-carboline-3-carboxamide]	inactive: -0.456
CC(C)C[C@H](NC(=O)[C@@H](COC(C)(C)C)NC(=O)[C@H](Cc1ccc(O)cc1)NC(=O)[C@H](CO)NC(=O)[C@H](Cc1c[nH]c2ccccc12)NC(=O)[C@H](Cc1cnc[nH]1)NC(=O)[C@@H]1CCC(=O)N1)C(=O)N[C@@H](CCCNC(=N)N)C(=O)N1CCC[C@H]1C(=O)NNC(N)=O [Goserelin Acetate]	inactive: 1.07
CCCN[C@H]1CCc2nc(N)sc2C1 [Pramipexole dihydrochloride]	inactive: 1.69
CCCN[C@H]1CCc2nc(N)sc2C1 [Pramipexole Dihydrochloride Monohydrate]	inactive: 0.159
OC[C@H]1O[C@H]([S-])[C@H](O)[C@@H](O)[C@@H]1O.[Au+] [Aurothioglucose]	inactive: -0.74
